No constants are given. Whether binding was seen depends on the method and setting. Some binding calls cover weakened binding; strength is not graded here. Tags and fused reporters may be left off the sequences shown.
Target: full-length NLRP7, Flag-tagged (human) (UniProt Q8WX94)
Assay: native gel or EMSA; Blue Native PAGE (Bis-Tris NativePAGE) of digitonin (1%-2.5%) lysates of HEK293T cells co-transfected with Flag-NLRP7 and ZBTB16-Myc; second dimension SDS-PAGE; blots with anti-Flag and anti-Myc

binding: binds
B1: full-length NLRP7, Flag-tagged (protein, UniProt Q8WX94 1-980)
chain: MTSPQLEWTLQTLLEQLNEDELKSFKSLLWAFPLEDVLQKTPWSEVEEADGKKLAEILVNTSSENWIRNATVNILEEMNLTELCKMAKAEMMEDGQVQEIDNPELGDAEEDSELAKPGEKEGWRNSMEKQSLVWKNTFWQGDIDNFHDDVTLRNQRFIPFLNPRTPRKLTPYTVVLHGPAGVGKTTLAKKCMLDWTDCNLSPTLRYAFYLSCKELSRMGPCSFAELISKDWPELQDDIPSILAQAQRILFVVDGLDELKVPPGALIQDICGDWEKKKPVPVLLGSLLKRKMLPRAALLVTTRPRALRDLQLLAQQPIYVRVEGFLEEDRRAYFLRHFGDEDQAMRAFELMRSNAALFQLGSAPAVCWIVCTTLKLQMEKGEDPVPTCLTRTGLFLRFLCSRFPQGAQLRGALRTLSLLAAQGLWAQMSVFHREDLERLGVQESDLRLFLDGDILRQDRVSKGCYSFIHLSFQQFLTALFYALEKEEGEDRDGHAWDIGDVQKLLSGEERLKNPDLIQVGHFLFGLANEKRAKELEATFGCRMSPDIKQELLQCKAHLHANKPLSVTDLKEVLGCLYESQEEELAKVVVAPFKEISIHLTNTSEVMHCSFSLKHCQDLQKLSLQVAKGVFLENYMDFELDIEFERCTYLTIPNWARQDLRSLRLWTDFCSLFSSNSNLKFLEVKQSFLSDSSVRILCDHVTRSTCHLQKVEIKNVTPDTAYRDFCLAFIGKKTLTHLTLAGHIEWERTMMLMLCDLLRNHKCNLQYLRLGGHCATPEQWAEFFYVLKANQSLKHLRLSANVLLDEGAMLLYKTMTRPKHFLQMLSLENCRLTEASCKDLAAVLVVSKKLTHLCLAKNPIGDTGVKFLCEGLSYPDCKLQTLVLQQCSITKLGCRYLSEALQEACSLTNLDLSINQIARGLWILCQALENPNCNLKHLRLKTYETNLEIKKLLEEVKEKNPKLTIDCNASGATAPPCCDFFC

Source: paper PMC4488268
